Hit rate of the full screen: of about 1,200 compounds, about 60 (5%) were called active. About 1% were inconclusive and are not listed.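 Rule for the calls: active = Decreasing signal and fitted IC50 at most twice the top valid tested dose; inconclusive = Bad fit or a level curve showing 30 to 70% inhibition; inactive = the rest.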 The list shows a part of the results. Measured potencies and affinities stand elsewhere. Where a SMILES comes first, the peptide text is derived from it. The star is where a group is joined. Tos = Cc1ccc(S(=O)(=O)*)cc1
target: NAD-dependent protein deacylase sirtuin-5, mitochondrial (Homo sapiens) (UniProt Q9NXA8); assay: SIRT5 desuccinylase inhibitors, dose response, biochemical, fluorescence imaging, cherry-pick, set 5 (AID 720591); conditions: Purified SirT5, succinyl-peptide AMC, trypsin-coupled fluorescence; at 15 µM (top of the series) unless noted;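 note: 0% = median of neutral control wells and -100% = median of positive control wells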

Protein sequences, listed by entry. Tags and fused reporters are not part of them. Lines headed by an entry give the natural chain unless they say otherwise; changes in a name come on top.
UniProt Q9NXA8: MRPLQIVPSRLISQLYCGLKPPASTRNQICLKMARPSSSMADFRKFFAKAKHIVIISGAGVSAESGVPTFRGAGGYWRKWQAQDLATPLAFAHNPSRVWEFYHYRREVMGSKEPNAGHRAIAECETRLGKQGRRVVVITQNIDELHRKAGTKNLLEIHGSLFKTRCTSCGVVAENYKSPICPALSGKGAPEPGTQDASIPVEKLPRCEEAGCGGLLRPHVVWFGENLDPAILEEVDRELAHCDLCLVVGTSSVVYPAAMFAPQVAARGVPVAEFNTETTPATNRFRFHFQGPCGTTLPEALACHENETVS

Compound | activity change, negative = inhibition
Cc1ccccc1CNC(=O)c1ccccc1NS(C)(=O)=O | inactive: -18.2%
COc1cc(CN(C(=O)c2ccco2)c2ccc(C)cc2)ccc1O | inactive: -4%
COc1ccc(Cl)cc1NC(=O)c1cccc(NC(=O)CCC(=O)O)c1 | inactive: 8.04%
CC1(C)CC(NC(=O)C2CCC(=O)N(C3CC3)C2)CC(C)(C)C1 (centres undefined) | inactive: -4.64%
C[C@H]1CN=C(Nc2ccccc2)N1CCC1CCCCC1 | inactive: 12.8%
COc1cccc(CN2CCN(CCCc3ccccc3)C(CCO)C2)c1OC (centres undefined) | inactive: -16.8%
Cc1n[nH]c(=O)c2c1nnn2Cc1ccccc1Cl | inactive: -22.4%
O=C(NCc1ccc(F)cc1)C1CC(=O)N(C2CCCCC2)C1 (centres undefined) | inactive: -24.7%
CCCC(C)C(=O)Nc1nc(C)c(-c2csc(Nc3ccc(Cl)cc3)n2)s1 (centres undefined) | inactive: 20.5%
COCCCNS(=O)(=O)c1cc2c3c(c1)C(C)C(=O)N3CCC2 (centres undefined) | inactive: -8.8%
CCOC(=O)C1(CCOc2ccccc2)CCN(Cc2ccc(OCCO)cc2)CC1 | inactive: 19.7%
CCCN1CCC(=O)N([C@H](CSc2ccc(OC)cc2)c2ccccc2)CC1 | inactive: -32.1%
C[C@H](CO)N1C[C@H](C)[C@@H](CN(C)C(=O)c2ccc(N3CCN(C)CC3)cc2)OCc2cnnn2CCCC1=O | inactive: 4.8%
O=C(Nc1ccnn1C1CCN(C(=O)c2ccc(C(F)(F)F)cc2)CC1)C1CC1 | inactive: -25.7%
O=C(NN1CC(=O)N(c2cc(Cl)cc(Cl)c2)CC1=O)c1sccc1Cl | inactive: -1.22%
Cc1cnc(C(=O)OCC(=O)Nc2cccc(S(=O)(=O)N3CCCCC3)c2)cn1 | inactive: -31%
COc1ccc2nc(SCC(=O)Nc3cc(C)on3)c(C#N)cc2c1 | inactive: -13.2%
COc1cc(C(=O)NCC2(N(C)C)CCCCC2)ccc1OCc1ccccc1 | inactive: 5.49%
COc1ccc(-c2nc3c(c(SCC(=O)Nc4cccc(O)c4)n2)Cc2c(CO)cnc(C)c2O3)cc1 | inactive: -31.7%
Cc1ccc(S(=O)(=O)N[C@@H](CO)C(=O)N[C@@H](Cc2ccc(O)cc2)C(=O)O)cc1 (Tos-Ser-Tyr-OH) | inactive: -11.1%
CC(C)c1ccccc1NC(=O)c1cnccn1 | inactive: -32.5%
Cc1cc(NC(=O)CCC(=O)N(Cc2ccccc2)C(C(=O)NC2CCCC2)c2ccc(C)o2)no1 (centres undefined) | inactive: -32.3%
C#CCSc1cc(C(F)(F)F)nc(-c2ccccn2)n1 | inactive: 4.04%
CCN(c1ccccc1)S(=O)(=O)c1ccc(OC)c(NC(=O)Cc2ccc(OC)c(OC)c2)c1 | inactive: -30.8%

2 entries picked at random from the list so far:
Compound | activity change, negative = inhibition
O=C(Nc1ccnn1C1CCN(C(=O)c2ccc(C(F)(F)F)cc2)CC1)C1CC1 | inactive: -25.7%
CCOC(=O)C1(CCOc2ccccc2)CCN(Cc2ccc(OCCO)cc2)CC1 | inactive: 19.7%

— PubChem BioAssay AID720591 (Broad Institute, 2013)
